The record followed here is publication PMC2816676, “DNA Binding of Centromere Protein C (CENPC) Is Stabilized by Single-Stranded RNA”.

For some of these results: Negatives hold for the conditions tested. For some of these results: At least one verdict was read from the data and is not stated in words by the source. For some of these results: Where a protein sequence is shown, tags need not be part of it. For some of these results: Weaker means in comparison with the reference protein, sequence or condition of that experiment. For some of these results: The exact form of at least one protein or probe is not confirmed.

What all share (test): EMSA
For data set [1], the system named is CENPC exon 12 peptide (Zea mays). As to conditions: 10 mM Tris pH 7.5, 50 mM NaCl, 0.5 mM DTT, 0.5 mM EDTA, 1 mM MgCl2, 4% glycerol, 20 µl, on ice 20 min, 5% PAGE, label: 33P 5' end label (unlabeled as competitor).
Data set [2] addresses T1, CENPC exon 9-12 (Zea mays) (UniProt Q9XHE1).
T1 sequence (looked up): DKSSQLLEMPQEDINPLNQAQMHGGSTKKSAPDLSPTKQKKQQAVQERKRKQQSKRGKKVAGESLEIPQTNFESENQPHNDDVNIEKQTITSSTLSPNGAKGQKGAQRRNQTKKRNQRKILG
The following applies: 10 mM Tris pH 7.5, 50 mM NaCl, 0.5 mM DTT, 0.5 mM EDTA, 1 mM MgCl2, 4% glycerol, 20 µl, on ice 20 min, 5% PAGE, recombinant protein, residues 503-624, label: 33P 5' end label (unlabeled as competitor).

The next data set deals with GST. As to conditions: 10 mM Tris pH 7.5, 50 mM NaCl, 0.5 mM DTT, 0.5 mM EDTA, 1 mM MgCl2, 4% glycerol, 20 µl, on ice 20 min; 5% PAGE; recombinant protein; label: 33P 5' end label (unlabeled as competitor).
In data set [3] the target is T2, CENPC exon 9-10 peptide (Zea mays) (UniProt Q9XHE1).
T2 sequence (looked up): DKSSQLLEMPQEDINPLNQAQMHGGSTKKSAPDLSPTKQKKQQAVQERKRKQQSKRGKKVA
As to conditions: 10 mM Tris pH 7.5, 50 mM NaCl, 0.5 mM DTT, 0.5 mM EDTA, 1 mM MgCl2, 4% glycerol, 20 µl, on ice 20 min, 5% PAGE, residues 503-563, label: 33P 5' end label (unlabeled as competitor).

In data set [4] the target is T3, CENPC full length (Zea mays) (UniProt Q9XHE1).
T3 sequence (looked up): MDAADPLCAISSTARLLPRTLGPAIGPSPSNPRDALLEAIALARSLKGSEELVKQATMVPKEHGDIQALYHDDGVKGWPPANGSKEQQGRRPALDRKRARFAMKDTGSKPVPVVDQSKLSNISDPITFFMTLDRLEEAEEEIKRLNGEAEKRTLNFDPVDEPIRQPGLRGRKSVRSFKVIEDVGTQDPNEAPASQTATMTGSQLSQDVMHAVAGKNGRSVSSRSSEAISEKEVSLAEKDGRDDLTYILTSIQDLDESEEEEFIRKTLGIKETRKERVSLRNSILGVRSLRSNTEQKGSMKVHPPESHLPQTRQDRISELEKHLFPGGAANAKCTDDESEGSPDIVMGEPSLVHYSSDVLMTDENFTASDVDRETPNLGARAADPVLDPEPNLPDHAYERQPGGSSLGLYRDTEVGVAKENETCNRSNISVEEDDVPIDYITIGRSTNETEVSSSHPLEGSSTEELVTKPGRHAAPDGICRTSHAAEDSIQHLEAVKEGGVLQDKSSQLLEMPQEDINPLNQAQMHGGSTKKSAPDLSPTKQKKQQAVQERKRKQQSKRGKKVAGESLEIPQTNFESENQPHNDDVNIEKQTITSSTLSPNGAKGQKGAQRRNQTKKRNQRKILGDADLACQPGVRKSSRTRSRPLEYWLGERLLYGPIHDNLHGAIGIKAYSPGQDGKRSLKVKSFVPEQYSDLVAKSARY
The following applies: 10 mM Tris pH 7.5, 50 mM NaCl, 0.5 mM DTT, 0.5 mM EDTA, 1 mM MgCl2, 4% glycerol, 20 µl, on ice 20 min; 5% PAGE; recombinant protein; residues 1-701; protein details: His (pET28a); label: 33P 5' end label.

In the case of “AATGGGTGACGTGCGGCAACGAAATTGCGCGAAACCACCCCAAA (double strand) [CentC 44 bp DSDNA]”, the binding result is “no binding” in data set [1] (no SSRNA); “binds” in data set [1] (plus 24 nt SSRNA); “no binding” in data set [2] (no SSRNA); “no binding” in data set [2] (plus 10 nt RNA CCGUUUUCAG); “binds” in data set [2] (plus 24 nt SSDNA); “binds” in data set [2] (plus 24 nt SSRNA CCGUUUUCAGAAUGGGUGACGUGC). In addition, the binding result in data set [2] (plus 48 nt poly-GT SSDNA) is listed as “binds”; in data set [2] (plus 167 nt CentC RNA), “no binding”; in data set [2] (plus unlabeled 44 bp DSDNA), “no binding”; in the data set with GST, “no binding”; in data set [3] (no SSRNA) it was “no binding”; in data set [3] (plus 24 nt SSRNA), “binds”.
Turning to “CCGUUUUCAGAAUGGGUGACGUGC [CentC 24 nt SSRNA]”, in data set [4], the binding result is on record as “binds more weakly”.
